Experimental findings from the odorant receptor screen of Mainland et al. (2015) are described below.

Assay in all cases: odorant receptor activation (CRE luciferase / Renilla) (fold of no-odor wells); higher = more activation
Common to all, as to conditions: 100 µM

Assay [1] concerns OR5T2 clone 1313.
Assay [2] deals with OR5T2 clone 1428.
Assay [3] relates to OR5T3 clone 1343.
Assay [4] deals with OR5V1 clone 1070.
For assay [5], the system named is OR6A2 clone 1489.
The test system of assay [6] is OR6B1 R143C clone 1181.
For assay [7], the system named is OR6B2 R122C clone 1444.
In assay [8] the test system is OR6B3 R261W clone 1445.
Assay [9] relates to OR6C1 V74I/C130Y/L161F/H165D/V246I/R291K clone 1442.
Assay [10] relates to OR6C2 clone 1413.
Assay [11] deals with OR6C3 clone 1424.
Assay [12] relates to OR6C4 I37V clone 1412.
For assay [13], the system named is OR6C6 clone 1426.
In assay [14] the test system is OR6C65 clone 1459.
Assay [15] has as its system OR6C68 A45T clone 1451.
Assay [16] deals with OR6C70 clone 1427.
The test system of assay [17] is OR6C74 clone 1441.
In assay [18] the test system is OR6C75 clone 1519.
Assay [19] has as its system OR6C76 clone 1414.
Assay [20] has as its system OR6F1 clone 1039.

Values joined by “and” are separate entries in the source; they are usually repeats but may differ in a detail not shown here. Equal entries are not always repeated. This is one part of the list. Single wells; the ratio to wells without odorant was worked out here, and repeats agree poorly.

For `O=C1CCCCCCCCCCCCCCO1` [pentadecalactone], the odorant receptor activation was 0.85 in assay [1]; 1.06 in assay [2]; 0.997 in assay [3]; 0.826 in assay [4]; 0.805 in assay [5]; 0.681 in assay [6]. Besides, the odorant receptor activation in assay [7] was found to be 1.48; in assay [8], 1.37; in assay [9], 1.4; in [10], 1.2; in [11], 1.2; in [12], 0.899. Moreover, the odorant receptor activation was found to be 1.22 in assay [13]; 0.922 in assay [14]; 0.96 in [15]; 1.18 in [16]; 1.41 in [17]; 0.838 in assay [18]. The odorant receptor activation in [19] stood at 0.972; in assay [20], 0.749.

Turning to `CC(=O)c1ccccc1` [acetophenone], the odorant receptor activation in assay [1] was 0.791; in assay [2], 0.949; in assay [3], 1.38; in [4], 1.14; in [5], 1.43 and 1.06; in assay [6], 1.33. For the same molecule, the odorant receptor activation in assay [7] amounted to 1.07; in [8] it was 0.891; in [9], 1.14; in assay [10] it was 0.8; in [11] it was 0.884; in assay [12], 0.878. Further, the odorant receptor activation in assay [13] is 0.934; in assay [14], 0.706 and 0.797; in [16], 1.01; in [17], 1.33; in assay [18] it was 1.07 and 0.831; in assay [19] it was 0.93. The same molecule showed an odorant receptor activation in assay [20] of 0.834.

With `CC1=NC(C)SC1C` (stereo not given), the odorant receptor activation is 0.698 in assay [1]; 1.01 in [2]; 1.3 in assay [3]; 1.97 in assay [4]; 1.56 and 0.986 in assay [5]; 1.6 in assay [6]. Further, the odorant receptor activation was determined as 0.982 in assay [7]; 0.968 in [8]; 1.1 in assay [9]; 1.24 in assay [10]; 1.01 in assay [11]; 0.996 in [12]. Further, the odorant receptor activation in assay [13] was 1.01; in assay [14] it was 0.912 and 1.09; in assay [16] it was 1.26; in [17], 1.35; in [18], 1.17 and 0.893; in [19] it was 1.22. Also, the odorant receptor activation in assay [20] stood at 0.856.

As to `C=CCSCC=C` [diallyl sulfide], the odorant receptor activation in assay [1] is 0.846; in assay [2], 1.33; in assay [3] it was 1.07; in assay [4], 1.03; in assay [5] it was 1.23; in [6] it was 1.26. Further, the odorant receptor activation in assay [7] was 0.975; in assay [8], 1.13; in assay [9], 1.12; in assay [10] it was 1.23; in [11], 1.01; in assay [12], 1.06. Besides, the odorant receptor activation in [13] amounted to 1.2; in assay [14] it was 1.07; in [15], 1.04; in assay [16], 0.942; in [17], 1.2; in [18], 1.27. Further, the odorant receptor activation was determined as 0.983 in assay [19] and 1.11 in [20].

For the molecule `COC(=O)c1ccccc1O` [methyl salicylate], the odorant receptor activation was determined as 1.06 in assay [1]; 0.999 in assay [2]; 0.799 in assay [3]; 1.21 in [4]; 1.09 in assay [5]; 0.663 in [6]. The odorant receptor activation in assay [7] stood at 0.77; in assay [8], 0.935; in assay [9], 1.33; in [10], 1.34; in [11] it was 0.961; in [12], 1.18. In addition, the odorant receptor activation in assay [13] came out at 1.59; in assay [14] it was 1.09; in [15], 0.801; in [16], 1.21; in assay [17], 1.01; in assay [18] it was 0.959. For the same molecule, the odorant receptor activation in assay [19] was 0.923; in assay [20], 0.988.

Regarding `O=C1CCCCC1` [Cyclohexanone], the odorant receptor activation was 0.451 in assay [1]; 0.868 in assay [2]; 0.684 in assay [3]; 1.39 in assay [4]; 0.656 and 1.36 in [5]; 0.897 in assay [6]. Moreover, the odorant receptor activation in [7] was determined as 1.01; in assay [8], 0.841; in assay [9] it was 0.989; in [10], 0.917; in assay [11], 0.873; in [12], 0.901. The odorant receptor activation in assay [13] is 0.845; in assay [14] it was 0.755 and 1.19; in assay [16] it was 1.36; in assay [17], 1.16; in assay [18], 1.13 and 0.846; in assay [19] it was 0.866. This molecule gave an odorant receptor activation in assay [20] of 0.934.

In [15], `CC(C)(O)CCCC1=CCC(C=O)CC1` (stereo not given) [lyral] yielded an odorant receptor activation of 0.886.

For the molecule `CC1COCc2cc3c(cc21)C(C)(C)C(C)C3(C)C` (stereo not given) [galaxolide], the odorant receptor activation in assay [2] was 2.75; in [3], 6.01 and 5.53; in assay [4] it was 2.08; in assay [6], 0.663; in assay [7] it was 1.99; in [8], 2.31. Besides, the odorant receptor activation in assay [9] was 2.62; in [10], 4.44; in assay [11], 3.49; in assay [12], 4.18; in [13] it was 3.92; in assay [15], 0.245 and 0.54. For the same molecule, the odorant receptor activation in assay [16] was 2.45; in assay [17], 2.95; in assay [19], 3.96; in [20], 7.79.

Take `O=C1CCCCCCCCCCCC(=O)OCCO1` [ethylene brassylate]: the odorant receptor activation in [1] was found to be 1.46; in assay [2] it was 1.77; in assay [3], 1.14; in [4], 1.53; in assay [5], 1.2; in assay [6], 1.67. The odorant receptor activation was determined as 1.77 in assay [7]; 1.76 in assay [8]; 1.65 in assay [9]; 1.38 in assay [10]; 1.53 in assay [11]; 1.39 in assay [12]. In addition, the odorant receptor activation in [13] turned out to be 2.06; in [14], 1.04; in assay [15] it was 1.67; in assay [16] it was 1.2; in assay [17] it was 1.78; in assay [18], 1.06. Besides, the odorant receptor activation in assay [19] came out at 1.25; in assay [20], 2.31.

As for `CC12C=CCC1C1CCC3=CC(=O)CCC3(C)C1CC2` (stereo not given) [androstadienone], the odorant receptor activation was 0.905 and 1.01 in assay [1]; 0.978 in [2]; 1.71 and 1.05 in [3]; 3.17 in assay [4]; 1.4 and 1.44 in [5]; 0.945 in assay [6]. In addition, the odorant receptor activation in assay [7] was found to be 1.01; in [8], 0.965; in [9], 1.05; in assay [10] it was 0.875; in [11], 0.986; in assay [12], 0.916. Moreover, the odorant receptor activation is 0.932 in [13]; 0.763 and 1.31 in [14]; 0.911 in assay [16]; 0.927 in assay [17]; 0.91 and 0.813 in assay [18]; 0.85 in assay [19]. Besides, in [20], the odorant receptor activation came to 1.44.

In the case of `O=CCc1ccccc1` [phenyl acetaldehyde], the odorant receptor activation came out at 1.32 in [1]; 1.52 in [2]; 1.2 in assay [3]; 0.94 in assay [4]; 1.5 in assay [5]; 0.721 in assay [6]. Moreover, the odorant receptor activation turned out to be 1.47 in assay [7]; 0.932 in [8]; 1.49 in [9]; 1.43 in [10]; 1.48 in [11]; 1.45 in assay [12]. The odorant receptor activation in [13] was 1.47; in assay [14] it was 1.73; in [15], 2.77; in assay [16], 1.61; in [17] it was 1.58; in assay [18], 1.36. The odorant receptor activation amounted to 1.34 in [19] and 1.29 in assay [20].

On to `CCCCCCC=O` [heptaldehyde], for which the odorant receptor activation in [2] is 0.947 and 0.767; in [3], 0.462 and 1.32 and 1.05; in assay [4] it was 2.2 and 1.96; in assay [6], 0.492 and 0.936; in assay [7], 0.752 and 0.792; in assay [8], 0.856 and 1.18. Moreover, the odorant receptor activation in assay [9] was 1.06 and 0.671; in [10] it was 0.961 and 0.812; in [11] it was 0.968 and 0.717; in assay [12] it was 1.09 and 0.742; in assay [13], 1.13 and 0.812; in assay [15], 1.11. Also, the odorant receptor activation was 1.05 and 0.807 in assay [16]; 1.23 and 0.73 in [17]; 0.979 and 0.862 in assay [19]; 0.791 and 1.47 in assay [20].

For `CCCCCC(=O)O` [caproic acid], the odorant receptor activation in assay [1] is 1.2; in [2], 0.22; in assay [3], 0.875; in assay [4], 1.06; in [5], 0.873; in assay [6], 1. For the same molecule, the odorant receptor activation in assay [7] amounted to 0.318; in assay [8], 0.326; in [9], 0.131; in [10], 0.193; in [11] it was 0.158; in assay [12], 0.283. Besides, the odorant receptor activation in [13] turned out to be 0.168; in [14], 1.04; in [15], 0.966; in [16], 0.214; in assay [17] it was 0.121; in assay [18], 1.06. Further, the values for the odorant receptor activation in [19] and in [20] were 0.181 and 0.991, respectively.

For the molecule `CC(C)CC(=O)O` [isovaleric acid], the odorant receptor activation is 0.755 in assay [1]; 0.63 in assay [2]; 0.738 in [3]; 1.57 in assay [4]; 0.989 in assay [5]; 1.04 in [6]. Also, the odorant receptor activation came to 0.648 in assay [7]; 0.885 in assay [8]; 0.9 in assay [9]; 0.738 in assay [10]; 0.659 in assay [11]; 0.854 in assay [12]. The odorant receptor activation in assay [13] was 0.927; in [14], 1; in assay [15], 1.21; in [16], 1.1; in [17] it was 0.846; in assay [18], 0.692. The odorant receptor activation in [19] turned out to be 0.791; in assay [20], 1.32.

`C=C(C)C1CCC2=CC(=O)CC(C)C2(C)C1` (stereo not given) [amyl laurate]: the odorant receptor activation in [15] turned out to be 0.692.

For `C=CCc1ccc(O)c(OC)c1` [eugenol], the odorant receptor activation in [1] is 0.813 and 1.54; in [2] it was 1.14 and 1.35; in assay [3], 1.99 and 1.21; in assay [4], 1.74 and 1.61; in assay [5], 2.12 and 1.2 and 1.36; in assay [6] it was 1.89 and 1.44. In addition, the odorant receptor activation in assay [7] was 1.2 and 1.25; in assay [8] it was 1.24 and 1.43; in assay [9] it was 1.47 and 1.41; in assay [10], 1.35; in assay [11], 1.41 and 1.24; in assay [12], 1.3 and 1.29. Besides, the odorant receptor activation in [13] was 1.5 and 1.59; in assay [14] it was 2.7 and 1.13 and 1.02; in [15], 1.39; in assay [16] it was 1.77 and 1.17; in [17], 1.88 and 1.78; in [18], 1.24 and 1.23 and 1.53. Moreover, the odorant receptor activation in assay [19] is 1.36 and 1.13; in assay [20], 2.66 and 1.67.
